In publication PMC10899400 one finds binding signal (PIR of G6 (A20 PIR 1)) data, which are given here for 1 sequence.

By UniProt entry, the sequences of proteins in these tests, tags left out. Residues count along the entry.
UniProt Q07955, 1-196 Y37S/Y72S: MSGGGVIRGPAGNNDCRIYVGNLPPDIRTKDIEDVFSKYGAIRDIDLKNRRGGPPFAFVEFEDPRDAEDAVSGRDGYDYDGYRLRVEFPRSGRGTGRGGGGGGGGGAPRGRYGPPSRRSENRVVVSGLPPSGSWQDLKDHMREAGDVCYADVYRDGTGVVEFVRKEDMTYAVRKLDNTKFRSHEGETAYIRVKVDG

The exact form of at least one protein or probe is not confirmed. Whether high values mean tight binding is not given here for every scale.

For this data set, the target named is SRSF1 RRM1-2 Y37S,Y72S (UniProt Q07955). Put plainly: 19F NMR. The note with it: 40% HeLa nuclear extract; 2'-F at G6 and A20; NMR buffer 20 mM NaHPO4 pH 6.5, 100 mM NaCl, 1 mM beta-mercaptoethanol, 50 mM L-Arg, 50 mM L-Glu; 19F NMR of free RNA at 303 K, with or without 40% HeLa nuclear extract; recombinant protein; residues 1-196; protein details: N-terminal GB1-His-TEV, removed; label: 19F (2'-F at G6 and A20).

For “UUACAGGGUUUUAGACAAAAU [RNA2 (2'-F-G6, 2'-F-A20)]”, the binding signal (PIR of G6 (A20 PIR 1)) was found to be 0.
